Reference: the supplement of paper PMC8728848
Some of the results follow.

Assays:
Experiment in all cases: glycan array binding signal (z-score within array); higher = stronger binding
Conditions in all cases: glycan notation: IUPAC condensed, linker removed
[1] = biological target: Neu5Ac(a2-6)Gal(b1-4)GlcNAc(b1-2)Man(a1-3)[Man(a1-6)]Man(b1-4)GlcNAc(b1-4)GlcNAc
Method in brief: (§1)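 Glycan array binding is given as a within-array Z-score, which can be read as non-binding when negative. The arrays, 3228 of them, came from the Consortium for Functional Glycomics database and were retained only where the protein sequence was available. Z-scores were averaged across arrays of the same protein sequence at different concentrations or buffers and across linkers.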

[2] = biological target: Neu5Ac(a2-6)Gal(b1-4)GlcNAc(b1-2)Man(a1-3)[Neu5Ac(a2-3)Gal(b1-4)GlcNAc(b1-2)Man(a1-6)]Man(b1-4)GlcNAc(b1-4)GlcNAc
Method in brief: as §1

[3] = biological target: Neu5Ac(a2-6)Gal(b1-4)GlcNAc(b1-2)Man(a1-3)[Neu5Ac(a2-6)Gal(b1-4)GlcNAc(b1-2)Man(a1-6)]Man(b1-4)GlcNAc(b1-4)GlcNAc
Method in brief: as §1

[4] = biological target: Neu5Ac(a2-6)Gal(b1-4)GlcNAc(b1-2)Man(a1-3)[Neu5Ac(a2-6)Gal(b1-4)GlcNAc(b1-2)Man(a1-6)]Man(b1-4)GlcNAc(b1-4)[Fuc(a1-6)]GlcNAc
Method in brief: as §1

[5] = biological target: Neu5Ac(a2-6)Gal(b1-4)GlcNAc(b1-2)Man(a1-6)Man(b1-4)GlcNAc(b1-4)GlcNAc
Method in brief: as §1

[6] = biological target: Neu5Ac(a2-6)Gal(b1-4)GlcNAc(b1-2)Man(a1-6)[Gal(b1-4)GlcNAc(b1-2)Man(a1-3)]Man(b1-4)GlcNAc(b1-4)GlcNAc
Method in brief: as §1

[7] = biological target: Neu5Ac(a2-6)Gal(b1-4)GlcNAc(b1-2)Man(a1-6)[GlcNAc(b1-2)Man(a1-3)]Man(b1-4)GlcNAc(b1-4)GlcNAc
Method in brief: as §1

[8] = biological target: Neu5Ac(a2-6)Gal(b1-4)GlcNAc(b1-2)Man(a1-6)[Man(a1-3)]Man(b1-4)GlcNAc(b1-4)GlcNAc
Method in brief: as §1

[9] = biological target: Neu5Ac(a2-6)Gal(b1-4)GlcNAc(b1-2)[Neu5Ac(a2-6)Gal(b1-4)GlcNAc(b1-4)]Man(a1-3)[GlcNAc(b1-4)][Neu5Ac(a2-6)Gal(b1-4)GlcNAc(b1-2)[Neu5Ac(a2-6)Gal(b1-4)GlcNAc(b1-6)]Man(a1-6)]Man(b1-4)GlcNAc(b1-4)GlcNAc
Method in brief: as §1

[10] = biological target: Neu5Ac(a2-6)Gal(b1-4)GlcNAc(b1-2)[Neu5Ac(a2-6)Gal(b1-4)GlcNAc(b1-4)]Man(a1-3)[GlcNAc(b1-4)][Neu5Ac(a2-6)Gal(b1-4)GlcNAc(b1-4)Man(a1-6)]Man(b1-4)GlcNAc(b1-4)GlcNAc
Method in brief: as §1

[11] = biological target: Neu5Ac(a2-6)Gal(b1-4)GlcNAc(b1-2)[Neu5Ac(a2-6)Gal(b1-4)GlcNAc(b1-6)]Man(a1-6)[Neu5Ac(a2-6)Gal(b1-4)GlcNAc(b1-2)Man(a1-3)][GlcNAc(b1-4)]Man(b1-4)GlcNAc(b1-4)GlcNAc
Method in brief: as §1

[12] = biological target: Neu5Ac(a2-6)Gal(b1-4)GlcNAc(b1-3)Gal(b1-3)GlcNAc
Method in brief: as §1

[13] = biological target: Neu5Ac(a2-6)Gal(b1-4)GlcNAc(b1-3)Gal(b1-4)GlcNAc
Method in brief: as §1

[14] = biological target: Neu5Ac(a2-6)Gal(b1-4)GlcNAc(b1-3)Gal(b1-4)GlcNAc(b1-2)Man(a1-3)[Neu5Ac(a2-6)Gal(b1-4)GlcNAc(b1-3)Gal(b1-4)GlcNAc(b1-2)Man(a1-6)]GalNAc
Method in brief: as §1

[15] = biological target: Neu5Ac(a2-6)Gal(b1-4)GlcNAc(b1-3)Gal(b1-4)GlcNAc(b1-3)Gal(b1-4)GlcNAc
Method in brief: as §1

[16] = biological target: Neu5Ac(a2-6)Gal(b1-4)GlcNAc(b1-3)Gal(b1-4)GlcNAc(b1-3)Gal(b1-4)GlcNAc(b1-2)Man(a1-3)[Neu5Ac(a2-6)Gal(b1-4)GlcNAc(b1-3)Gal(b1-4)GlcNAc(b1-3)Gal(b1-4)GlcNAc(b1-2)Man(a1-6)]GalNAc
Method in brief: as §1

[17] = biological target: Neu5Ac(a2-6)Gal(b1-4)GlcNAc(b1-3)Gal(b1-4)GlcNAc(b1-3)GalNAc
Method in brief: as §1

[18] = biological target: Neu5Ac(a2-6)Gal(b1-4)GlcNAc(b1-3)Gal(b1-4)GlcNAc(b1-3)[Neu5Ac(a2-6)Gal(b1-4)GlcNAc(b1-3)Gal(b1-4)GlcNAc(b1-6)]GalNAc
Method in brief: as §1

[19] = biological target: Neu5Ac(a2-6)Gal(b1-4)GlcNAc(b1-3)Gal(b1-4)GlcNAc(b1-6)[Gal(b1-3)]GalNAc
Method in brief: as §1

[20] = biological target: Neu5Ac(a2-6)Gal(b1-4)GlcNAc(b1-3)Gal(b1-4)[Fuc(a1-3)]GlcNAc(b1-3)Gal(b1-4)[Fuc(a1-3)]GlcNAc
Method in brief: as §1

[21] = biological target: Neu5Ac(a2-6)Gal(b1-4)GlcNAc(b1-3)GalNAc
Method in brief: as §1

[22] = biological target: Neu5Ac(a2-6)Gal(b1-4)GlcNAc(b1-3)[Neu5Ac(a2-6)Gal(b1-4)GlcNAc(b1-6)]GalNAc
Method in brief: as §1

[23] = biological target: Neu5Ac(a2-6)Gal(b1-4)GlcNAc(b1-6)GalNAc
Method in brief: as §1

[24] = biological target: Neu5Ac(a2-6)Gal(b1-4)GlcNAc(b1-6)[Gal(b1-3)GlcNAc(b1-3)]Gal(b1-4)Glc
Method in brief: as §1

[25] = biological target: Neu5Ac(a2-6)Gal(b1-4)GlcNAc(b1-6)[Gal(b1-3)]GalNAc
Method in brief: as §1

[26] = biological target: Neu5Ac(a2-6)Gal(b1-4)GlcNAc6S
Method in brief: as §1

Neu5Ac(a2-6)GalNAc = biological target: Neu5Ac(a2-6)GalNAc
Method in brief: as §1

[27] = biological target: Neu5Ac(a2-6)GalNAc(b1-4)GlcNAc
Method in brief: as §1

[28] = biological target: Neu5Ac(a2-6)GalNAc(b1-4)GlcNAc6S
Method in brief: as §1

[29] = biological target: Neu5Ac(a2-6)GlcNAc(b1-4)GlcNAc
Method in brief: as §1

B1: PX14343F-bfa-562-20-562 (Bacteroides fragilis) (protein)
chain: CDDFLDSFPQDTVTNENFWKSKEDADKVLVDIYASLLPKDAIFFDEAMSDNAYLVWDWWGGAQQVANGSYTTSGEIPTNRWNGSYEVIRKCWFLLEGIEKIEDISEQDKNKIIGETYFMLAYNYYVLTSYFGDVPLVTKTLAIPESKQLVRTPKAEVVDYAINKLKEAAVMLEGLSQEKGRVTADACRFLIARMYLYNGDYSNVLETVKLLEGKYQLYREGDTPYEDLFSGVAENSCEVILSVVCDKRVGEIYTSHGGNGIMLLKGITGEDPYRGVTPSGSLVDAYPMADGRLIHEAGSSYDPKKPYEGRDPRFYQSIVYPTGQIKYLDVETGTVKERLYDPEDPTTVPEHQYNYSQPSATGYMWNKYIDYSVYAMNSVWDCTNDIIVFRYADVLLMKAEALLQTKGESAKEEVCNLIDQLRDRCSCGRVHRENYNSKDELMELLKNERRIELANEGLRYMDLIRWKDAEKNTIVTGVGLTGQMYGAYMRKDGVGKDDKTVDVDNTPRRYIETRYFNASKGYLFPIPQKERDLNPNLTQNPNW
glycan array binding signal (z-score) [1]: -0.577
glycan array binding signal (z-score) [2]: -0.057
glycan array binding signal (z-score) [3]: -0.2
glycan array binding signal (z-score) [4]: 1.09
glycan array binding signal (z-score) [5]: -0.713
glycan array binding signal (z-score) [6]: -0.083
glycan array binding signal (z-score) [7]: -0.28
glycan array binding signal (z-score) [8]: 0.393
glycan array binding signal (z-score) [9]: 0.464
glycan array binding signal (z-score) [10]: 0
glycan array binding signal (z-score) [11]: 0.203
glycan array binding signal (z-score) [12]: -0.31
glycan array binding signal (z-score) [13]: 0.45
glycan array binding signal (z-score) [14]: -0.077
glycan array binding signal (z-score) [15]: -0.047
glycan array binding signal (z-score) [16]: 2.16
glycan array binding signal (z-score) [17]: -0.22
glycan array binding signal (z-score) [18]: -0.331
glycan array binding signal (z-score) [19]: 0.129
glycan array binding signal (z-score) [20]: -0.224
glycan array binding signal (z-score) [21]: -0.734
glycan array binding signal (z-score) [22]: -0.959
glycan array binding signal (z-score) [23]: -0.146
glycan array binding signal (z-score) [24]: 0.198
glycan array binding signal (z-score) [25]: -0.61
glycan array binding signal (z-score) [26]: 0.166
glycan array binding signal (z-score) (Neu5Ac(a2-6)GalNAc): -1.21
glycan array binding signal (z-score) [27]: -0.178
glycan array binding signal (z-score) [28]: -0.3
glycan array binding signal (z-score) [29]: -0.584
